{"source": "paper PMC4824113", "key": {"[1]": {"system": "TaXPD E542C (disulphide trapping) E524C (Thermoplasma acidophilum)", "assay": "disulphide trapping, mass spectrometry", "settings": "covalent, 5'-alkanethiol (HO-(CH2)6-S-S-(CH2)6-) for disulphide link, trapping: 20 mM Tris-HCl pH 8.3-8.5, 50 mM NaCl, recombinant protein, protein details: N-term 6His removed by TEV"}, "[2]": {"system": "TaXPD E542C (disulphide trapping) E524C (Thermoplasma acidophilum)", "assay": "disulphide trapping", "settings": "covalent, 5'-alkanethiol (HO-(CH2)6-S-S-(CH2)6-) for disulphide link, trapping: 20 mM Tris-HCl pH 8.3-8.5, 50 mM NaCl, 4 C overnight, anaerobic, recombinant protein, protein details: N-term 6His removed by TEV"}, "[3]": {"settings": "single-stranded DNA, letters put together from the description"}}, "note": "The exact form of at least one protein or probe is not confirmed. For some assays here: At least one verdict rests on a figure or table, not on a statement of the authors."}
{"sequence": "TACGACGGC [9mer]", "values": [{"measurement": "binding result", "setting": "[1]; no AMPPNP/MgCl2, 4 C overnight …, single-stranded DNA, letters put together from the description", "result": "binds"}]}
{"sequence": "TACGACGGCC [10mer]", "values": [{"measurement": "binding result", "setting": "[2]; [3]", "result": "binds"}]}
{"sequence": "TACGACGGCCA [11mer]", "values": [{"measurement": "binding result", "setting": "[2]; [3]", "result": "binds"}]}
{"sequence": "TACGACGGCCAGTGC [15mer]", "values": [{"measurement": "binding result", "setting": "[2]; single-stranded …", "result": "binds"}]}
{"sequence": "TACGAGAGAGAGAGAACCGAGCATTTGCTCG [crosslinking hairpin DNA]", "values": [{"measurement": "binding result", "setting": "[1]; 4 C overnight, anaerobic, folded or branched DNA", "result": "binds"}]}
